Results reported in US20150274634A1, “COMPOUNDS FOR THE TREATMENT OF OBESITY AND METHODS OF USE THEREOF” (The Children's Medical Center Corporation, priority 2014, published 2015).
Entries after “also recorded” stand apart in the source; their conditions may differ. For at least one compound, name, drawing or mass did not settle the structure.

Assays:
[1] = test system: Phosphoenolpyruvate carboxykinase (PEPCK); assay: Hepatic mRNA expression by quantitative PCR: PEPCK; assay type: in vivo; settings: HFD-fed obese mice; 100 μg/kg i.p., 3 weeks
lean mice [2] = assay: Celastrol i.p. to lean mice on chow diet; assay type: in vivo
obese mice = assay: Chronic co-administration of celastrol and leptin to obese mice; assay type: in vivo, C57B1/J1 mice; settings: HFD-fed obese mice; celastrol 100 μg/kg/day i.p. 40 days; leptin from 1 mg/kg/day i.p. at about day 17, increasing doses
HFD-fed obese mice [3] = assay: Leptin injection upon acute celastrol treatment, HFD-fed obese mice; assay type: in vivo; settings: 24 hour ad libitum feeding after 24-hour fasting, celastrol 100 μg/kg i.p., leptin 10 mg/kg i.p.
Description: It was therefore hypothesized that celastrol exerts anti-obesity effects through increasing leptin sensitivity in the brains of the HFD-fed obese mice. To test this hypothesis, leptin was administered to celastrol- or vehicle-treated HFD-fed obese animals. To avoid any possible leptin sensitizing effect of weight loss or decreased food intake created by celastrol administration, leptin injections were carried out upon acute celastrol treatment as described below.
Lean and HFD-fed obese mice were divided into four groups: 1) DMSO+saline, 2) DMSO+leptin, 3) celastrol+saline, and 4) celastrol+leptin (n=3 per group). Mice were injected (i.p.) with 100 μg/kg celastrol or vehicle (DMSO) one hour before dark cycle (day zero). 24 hours later, mice were injected for a second time with celastrol or DMSO (day 1), and all animals were then taken to 24 hour-fasting. On day two, at 21 hours of fasting, mice received a final injection of DMSO or celastrol. 30 minutes prior to dark cycle, at 23.5 hour of fasting, mice received a single i.p. injection of leptin (10 mg/kg, dissolved in saline), or saline. […] 1, 3, 6, 15, and 24-hour food intake and 24-hour body weight changes were recorded (FIG. 7A). […] This is clearly evident when food intake of the celastrol-treated mice is calculated in percent values (FIG. 7B). […]

HFD-fed obese mice [4] = assay: Glucose Tolerance Test (GTT); assay type: in vivo; settings: 100 μg/kg i.p., after one week, D-glucose 0.75 g/kg i.p.
HFD-fed obese mice [5] = assay: Oral celastrol to HFD-fed obese mice; assay type: in vivo
HFD-fed obese mice [6] = assay: Insulin Tolerance Test (ITT); assay type: in vivo; settings: 100 μg/kg i.p., day 16, insulin 1 IU/kg
[7] = test system: leptin receptor deficient (db/db) mice; assay: Celastrol i.p. to leptin receptor deficient (db/db) mice; assay type: in vivo
HFD-fed obese mice [8] = assay: Celastrol i.p. to HFD-fed obese mice: body weight, food intake, fasting blood glucose; assay type: in vivo, C57B1/6J mice
lean mice [9] = assay: Oral celastrol to lean mice; assay type: in vivo; settings: orally 10 mg/kg
[10] = test system: Glucose 6-phosphatase (G6Pase); assay: Hepatic mRNA expression by quantitative PCR: G6Pase; assay type: in vivo; settings: HFD-fed obese mice; 100 μg/kg i.p., 3 weeks
db/db mice = assay: Oral celastrol to db/db mice; assay type: in vivo; settings: orally 10 mg/kg
ob/ob mice = assay: Oral celastrol to ob/ob mice; assay type: in vivo; settings: orally 10 mg/kg
C57BL/6 mice = assay: Celastrol to prevent obesity, from weaning; assay type: in vivo; settings: mice on high fat diet from weaning; celastrol 100 μg/kg/day i.p. for over 6 months
HFD-fed obese mice [11] = assay: Liver and kidney histology (H&E); assay type: in vivo; settings: 100 μg/kg i.p., three weeks
HFD-fed obese mice [12] = assay: Plasma leptin level by leptin specific ELISA during chronic celastrol; assay type: in vivo; settings: chronic celastrol 100 μg/kg i.p.
[13] = test system: Peroxisome proliferator-activated receptor gamma coactivator 1-alpha (PGC1a); assay: Hepatic mRNA expression by quantitative PCR: PGC1a; assay type: in vivo; settings: HFD-fed obese mice; 100 μg/kg i.p., 3 weeks
[14] = test system: leptin deficient (ob/ob) mice; assay: Celastrol i.p. to leptin deficient (ob/ob) mice; assay type: in vivo
HFD-fed obese mice [15] = assay: Body composition by Dual-Emission X-ray Absorptiometry (DEXA); assay type: in vivo; settings: celastrol i.p. 100 μg/kg, two weeks
[16] = 50, 100 or 500 μg/kg i.p., three weeks
[17] = orally 10 mg/kg in captisol suspension

## CC1=C(O)C(=O)C=C2C1=CC=C1[C@@]2(C)CC[C@@]2(C)[C@@H]3C[C@](C)(C(=O)O)CC[C@]3(C)CC[C@]12C [celastrol]
[1]
  hepatic mRNA expression of PEPCK: decreased
Lean mice [2]; [16]
  body weight: did not induce bodyweight loss
  food intake: significant but small decrease
Lean mice [2]; only the highest dose tested, 500 μg/kg i.p., 2 weeks
  blood glucose: significant decrease
Obese mice
  body weight: decreased gradually and reached a plateau at approximately day 17
HFD-fed obese mice [3]
  24-hour body weight change: continued to exhibit weight loss; also recorded: decreased the weight gain
HFD-fed obese mice [4]
  glucose homeostasis, Area Under the Curve of GTT: significantly improved
HFD-fed obese mice [5]; [17]
  body weight: robust and significant decrease
  food intake: robust and significant decrease
HFD-fed obese mice [5]; orally 10 mg/kg, reduced to hypoglycemic levels
  6-hour fasting blood glucose levels: decreased
HFD-fed obese mice [6]
  insulin sensitivity (ITT): improved
[7]; 100 μg/kg i.p. once a day
  appetite: Neither of these mouse models showed a significant decrease
  body weight: continued to increase similar to the control
[7]; 100 μg/kg i.p., after 2 weeks
  6-hour fasted blood glucose: failed to decrease
HFD-fed obese mice [8]; 10, 50, 100 μg/kg i.p., three days average within the first week
  food intake: significantly decreased
HFD-fed obese mice [8]; 10, 50 and 100 μg/kg i.p. once per day, three weeks, dose dependent
  body weight: significantly decreased
HFD-fed obese mice [8]; chronic celastrol i.p. 100 μg/kg, as endogenous leptin levels decrease
  food intake towards the end of the study: gradually rose towards the end of the study
HFD-fed obese mice [8]; i.p., day 14
  6-hour fasting blood glucose: decreased
Lean mice [9]
  body weight: no significant change
  food intake: no significant change
Lean mice [9]; after three weeks
  blood glucose levels: small but significant decrease
[10]
  hepatic mRNA expression of G6Pase: decreased
db/db mice
  response to oral celastrol treatment (bodyweight, food intake): completely unresponsive
ob/ob mice
  response to oral celastrol treatment (bodyweight, food intake): completely unresponsive
C57BL/6 mice
  development of obesity (bodyweight): did not
HFD-fed obese mice [11]
  hepatosteatosis (H&E liver sections): reduced
HFD-fed obese mice [12]
  leptin levels: decrease gradually
[13]
  hepatic mRNA expression of PGC1a: decreased
[14]; 100 μg/kg i.p. once a day
  appetite: Neither of these mouse models showed a significant decrease
  body weight: continued to increase similar to the control
[14]; 100 μg/kg i.p., after 2 weeks
  6-hour fasted blood glucose: failed to decrease
HFD-fed obese mice [15]
  fat mass: decreased significantly
  fat percentage: decreased significantly
  lean mass: remained unchanged
